{"source": "paper PMC4635569", "biological_target": "human C3d (human) (UniProt P01024)", "test": "SPR; C3b (~250 RU) or C3d (~70 RU) amine coupled to adjacent flow cells of a Biacore C1 chip; FH preincubated with or without a 2-fold molar excess of PspCN injected (90 s, 30 μl/min, 400 s dissociation); 1:1 binding model; both purified", "note": "These are yes or no findings as the source states them, for the method shown. Some entries that bind do so weakly or less than the wild type.", "data": [{"substance": "plasma-derived human complement factor H (from UniProt P08603 19-1231)", "values": [{"measurement": "binding", "value": "binds weakly"}]}, {"substance": "recombinant FH(D1119G) (from UniProt P08603 19-1231)", "values": [{"measurement": "binding", "value": "no binding"}]}]}
